In publication PMC4140012:
Results are given in words; binding and its absence hold for the method and conditions named. Binding seen in cells or lysates may run through a third protein. Some results given as binding are weak or reduced against the parent protein; the word gives no strength. Tags and fused reporters may be left off the sequences shown.

Amino acid sequences for entries named in this document (tags omitted).
UniProt O18413: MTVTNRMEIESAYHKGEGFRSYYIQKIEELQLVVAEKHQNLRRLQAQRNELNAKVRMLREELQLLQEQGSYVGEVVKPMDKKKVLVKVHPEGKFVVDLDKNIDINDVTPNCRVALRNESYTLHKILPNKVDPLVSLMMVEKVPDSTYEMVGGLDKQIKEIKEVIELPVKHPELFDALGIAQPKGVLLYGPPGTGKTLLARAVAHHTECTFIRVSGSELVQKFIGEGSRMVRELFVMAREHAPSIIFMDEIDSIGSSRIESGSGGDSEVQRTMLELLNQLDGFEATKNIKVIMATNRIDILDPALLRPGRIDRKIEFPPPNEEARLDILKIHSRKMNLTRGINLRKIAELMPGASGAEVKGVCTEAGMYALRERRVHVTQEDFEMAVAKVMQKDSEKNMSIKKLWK

Experiments:
[1] = molecular target: T1, V5-tagged Imd full length (Drosophila) (UniProt Q7K4Z4); test: co-IP; S2 cells cotransfected with pAc-Imd-V5 and a control empty plasmid; anti-V5 IP, blot for endogenous Pros45
T1 sequence: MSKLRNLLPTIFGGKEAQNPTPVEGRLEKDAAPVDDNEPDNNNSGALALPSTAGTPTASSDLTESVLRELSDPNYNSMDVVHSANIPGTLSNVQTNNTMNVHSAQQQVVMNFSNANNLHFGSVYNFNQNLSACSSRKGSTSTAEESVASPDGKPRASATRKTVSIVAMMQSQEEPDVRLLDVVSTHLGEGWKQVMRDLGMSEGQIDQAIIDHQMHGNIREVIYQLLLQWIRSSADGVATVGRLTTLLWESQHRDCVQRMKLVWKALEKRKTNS

[2] = molecular target: T1, V5-tagged Imd full length (Drosophila); test: co-IP; S2 cells cotransfected with pAc-Imd-V5 and pAc-Usp2 (USP2 overexpressed); anti-V5 IP, blot for endogenous Pros45

binding [1]: binds weakly
binding [2]: binds
Substance: proteasomal subunit 8 (Pros45) (from UniProt O18413 1-405)
